{
  "source": "patent US20140303105A1",
  "about": "“Primycin and components thereof for use in the treatment or prevention of infections caused by specific pathogens” (PANNONPHARMA GYÓGYSZERGYÁRTÓ ZRT., priority 2011, published 2014)",
  "origin": "cited, not measured here",
  "system": "S. aureus",
  "conditions": "by Bryskier; cited from earlier work",
  "note": "For at least one compound, name, drawing or mass did not settle the structure.",
  "data": [
    {"smiles": "CCC[C@@H]1C[C@@H](C(=O)N[C@@H]([C@H]2O[C@H](SC)[C@H](O)[C@@H](O)[C@H]2O)[C@H](C)Cl)N(C)C1", "note": "[Clindamycin]", "values": [
      {"measurement": "MIC", "result": ">250", "unit": "µg/mL"}
    ]}
  ]
}
